The supplement of paper PMC5949888
Most values lie at the floor of the assay. Slopes are relative: functional sequences can read slightly below zero.

The substances below were run on Saccharomyces cerevisiae PS128 hsf1 delta, HSF1(1-493) fusion (assay: growth estimate (transactivation domain function in HSF1 fusion, heat-shock survival) (a.u. (slope of normalised read count over time)); higher = stronger growth at 37°C, i.e. more transactivation activity). Details: library: random library.
Substance AKRPQFWLVST has a growth estimate of less than -0.25.
LGMSCFMGATQR was tested, and the growth estimate was less than -0.25.
In the case of VRVLRLTALGSYSDLSVHLY, the growth estimate was less than -0.25.
VLFQSVGAVVNSSPHRDCKK was tested, and the growth estimate was less than -0.25.
Substance SLNQHLLRNFISPRSQPVVR has a growth estimate of less than -0.25.
Work on GNIASVLVLYPPSTIG yielded a growth estimate of less than -0.25.
Substance LGRMPDRAGPTIEPDRDPRV has a growth estimate of less than -0.25.
Work on RIPETRGLVAVEVRD yielded a growth estimate of less than -0.25.
SSLLCPSWLRGVRSRST was tested, and the growth estimate was less than -0.25.
VVEESLCYAGR gave a growth estimate of less than -0.25.
ASRNIR was tested, and the growth estimate was less than -0.25.
MPLSYQSWEATGAVRLRGII gave a growth estimate of less than -0.25.
PQSI showed a growth estimate of less than -0.25.
PQQRGTVRKSARASVDGSKE gave a growth estimate of less than -0.25.
With KRN the growth estimate was less than -0.25.
RQPSDTWYEISITGAAARAW gave a growth estimate of -0.246.
QVTTYLFSDP was tested, and the growth estimate was less than -0.25.
Substance NPLKFGELVNLSHRCVTLIH has a growth estimate of less than -0.25.
VCCSAQGIVISGRF showed a growth estimate of less than -0.25.
KRSAIISKSRQSLPQG gave a growth estimate of less than -0.25.
Work on LSIMCRFGLRAR yielded a growth estimate of less than -0.25.
For IFLTLFFSRAPTVARCAVHF, the growth estimate was less than -0.25.
SEVGGNRGGPTSKGYGHSRT was tested, and the growth estimate was less than -0.25.
HVDIVSG was tested, and the growth estimate was less than -0.25.
VAWKVSR gave a growth estimate of less than -0.25.
YLRVRVAIWSTRAYCGY showed a growth estimate of less than -0.25.
In the case of RRGYPRHFIGFVQTSAVRNE, the growth estimate was less than -0.25.
Substance NSPRRKAVLLGPPVGGG has a growth estimate of less than -0.25.
Work on LSLVMSDRLAERKAACRRPR yielded a growth estimate of less than -0.25.
Work on FLYWA yielded a growth estimate of -0.25.
For MEWVK, the growth estimate was less than -0.25.
RIAVESAWTRRLRIRYDQPL was tested, and the growth estimate was less than -0.25.
FPYLAVVGYNNLARNQLPLR was tested, and the growth estimate was less than -0.25.
ICIALTATPRGISKRLLTPT was tested, and the growth estimate was less than -0.25.
ACPPPHFLHKHPDTNCDHGP was tested, and the growth estimate was less than -0.25.
LKSLIVKRRQFNPSRADRPV showed a growth estimate of less than -0.25.
For HRRS, the growth estimate was -0.243.
FLKILRQYCAHT gave a growth estimate of less than -0.25.
Substance GIWSSLATACSVRSRSTVCG has a growth estimate of less than -0.25.
Work on KEDQLMKNSVSKRVRTLVKH yielded a growth estimate of -0.246.
AQMLSEGWC was tested, and the growth estimate was -0.229.
With VTGSLFEVQ the growth estimate was less than -0.25.
Work on WGGKCSASWAHKTPVP yielded a growth estimate of less than -0.25.
With FWQQDT the growth estimate was less than -0.25.
With QPKS the growth estimate was less than -0.25.
For NINTPASTRPERAD, the growth estimate was less than -0.25.
Substance LPDSEISRRRRVMPLAGVFR has a growth estimate of less than -0.25.
With HMTWFRRYFLASILF the growth estimate was -0.246.
For MMFW, the growth estimate was -0.107.
With MSLSIVLEPRG the growth estimate was less than -0.25.
For LTPPELARIGNTELRGSKHM, the growth estimate was less than -0.25.
In the case of AVGLDGCRQGGGLLTCIRAK, the growth estimate was less than -0.25.
Substance DTITFESSAGSLQ has a growth estimate of less than -0.25.
For RWCGWLFWSPSNS, the growth estimate was less than -0.25.
Substance ATKREKGKDVSKESACHDYM has a growth estimate of less than -0.25.
Substance CGTLGNTN has a growth estimate of less than -0.25.
With LYSS the growth estimate was less than -0.25.
Substance PPLGKYCLAAHLCWSRRQST has a growth estimate of less than -0.25.
YKQGADKKFAYPMY was tested, and the growth estimate was less than -0.25.
Substance QAREIRPALECLMIGRVYGC has a growth estimate of less than -0.25.
NRDSF was tested, and the growth estimate was less than -0.25.
With VHLRIFTN the growth estimate was less than -0.25.
RILCQRYPIYAWSR showed a growth estimate of less than -0.25.
Work on VVYAVKERNFRDGVDDCIKS yielded a growth estimate of 0.0276.
In the case of CQLDSRVYAAD, the growth estimate was less than -0.25.
CKYLSVATGNRSLGQGNCMS gave a growth estimate of less than -0.25.
Substance QYFGQSDLPQHTWIVFF has a growth estimate of less than -0.25.
Substance NWVSVLSALGGLLNAAP has a growth estimate of less than -0.25.
For GTNGSQQRYF, the growth estimate was less than -0.25.
In the case of TNCLHPKPRSRKSSTRYGRQ, the growth estimate was less than -0.25.
In the case of QASNRTIWAVVVDAING, the growth estimate was less than -0.25.
GARCGCKLLGVTSHAGQWIA gave a growth estimate of less than -0.25.
In the case of WKFVCPLWPKVKGAPPLDIP, the growth estimate was less than -0.25.
For SSLVDRRYPKGTSRTMQLQM, the growth estimate was less than -0.25.
YSSEKEEG gave a growth estimate of less than -0.25.
In the case of RAVYISGWLCLGTGSKGVTQ, the growth estimate was less than -0.25.
With AQRLRLDCKVLPARCALWER the growth estimate was less than -0.25.
GNWVSVNPRKGLVQDGRWGW showed a growth estimate of less than -0.25.
In the case of LFAGPTAGGVAAKLTCGDK, the growth estimate was less than -0.25.
Substance AHVLFSAC has a growth estimate of less than -0.25.
Substance TSTRSHLGLGNRHHGGVTGG has a growth estimate of -0.243.
QMMRHKVATQ gave a growth estimate of less than -0.25.
FEYVTTAALG showed a growth estimate of less than -0.25.
QYWNTSRVADFGRSTVVVPT gave a growth estimate of -0.184.
Substance PRRRDWEIVGCWKCAVFAAR has a growth estimate of less than -0.25.
In the case of NPRQLNLHAGVCLRAAILSV, the growth estimate was less than -0.25.
With RDLLERQRGMARYVM the growth estimate was less than -0.25.
NVYVPDAVPSGEDLEAFKLT showed a growth estimate of -0.246.
AQRRYAYLLQ showed a growth estimate of less than -0.25.
SGVRVSPGGT gave a growth estimate of less than -0.25.
CAIRQVRLVGLREELVSMGQ showed a growth estimate of less than -0.25.
For CDGRTS, the growth estimate was less than -0.25.
Substance MDLGILDTAKSCVLSRRFRQ has a growth estimate of less than -0.25.
Work on AAGLSDCINKSFMS yielded a growth estimate of less than -0.25.
With DIEPLLRDWFRVDPGR the growth estimate was -0.223.
For AST, the growth estimate was less than -0.25.
Work on ALSLNCPL yielded a growth estimate of less than -0.25.
Substance IMSLNSFPGRAKQKTSTFCD has a growth estimate of -0.245.
Substance FLCRLTVPVYKALPSGLLPG has a growth estimate of less than -0.25.
In the case of LYSARIRKGARWLAVLARYF, the growth estimate was less than -0.25.
GLRFPSQVIEGQLYCVVVSS was tested, and the growth estimate was less than -0.25.
FLLWLTARSCNCLSKSRVND was tested, and the growth estimate was less than -0.25.
With LHHYRS the growth estimate was less than -0.25.
Substance STLGT has a growth estimate of -0.221.
Substance RASHAGPKRCVISKHELVRS has a growth estimate of less than -0.25.
GFRGQRC showed a growth estimate of less than -0.25.
Work on STTKG yielded a growth estimate of less than -0.25.
With GSPNGSIDDLADGVYPT the growth estimate was less than -0.25.
Substance VEFSLVRTHSWLGSAIA has a growth estimate of less than -0.25.
Work on GARPITRAPAVLAGKPQDVR yielded a growth estimate of less than -0.25.
NNAPATAVWLTVSKFGTHMK was tested, and the growth estimate was less than -0.25.
Substance VLKDVGRQRLGLWLGRA has a growth estimate of less than -0.25.
Work on SHHRIRNEAFGNAIWVLSCA yielded a growth estimate of less than -0.25.
Substance DRNGVEFWATVEERHRIACR has a growth estimate of less than -0.25.
SPWEETDLVAGP was tested, and the growth estimate was -0.201.
In the case of LGPNPIDEVGVRWP, the growth estimate was less than -0.25.
With FRVALRVKPFKLFR the growth estimate was less than -0.25.
RSGCCCYNVLVSVSSRPTVA gave a growth estimate of less than -0.25.
In the case of ACFSLWTKAI, the growth estimate was less than -0.25.
With LPSAPDIYIRLRHERSYVKR the growth estimate was less than -0.25.
For ATASGVSGHVLGLRAMLCSQ, the growth estimate was less than -0.25.
For SRLSDRDRNVAIAESQKSHY, the growth estimate was -0.246.
ISGNSDSFL was tested, and the growth estimate was less than -0.25.
KYDSAAWSDILFNKSRCLGG showed a growth estimate of less than -0.25.
For DSVIDSLSGSRGSRG, the growth estimate was less than -0.25.
YPWQAILNILCIGCILWPSN was tested, and the growth estimate was less than -0.25.
Substance LTVRF has a growth estimate of less than -0.25.
In the case of SVKGRIASQTTRATQE, the growth estimate was less than -0.25.
In the case of SRLQLFPSIAGCCF, the growth estimate was less than -0.25.
SRAWHTSAGIPCKSERQATP showed a growth estimate of less than -0.25.
Substance NRTQDR has a growth estimate of less than -0.25.
Substance CSRSPSVLGHAGRAEKLEIG has a growth estimate of -0.24.
Substance PLAKN has a growth estimate of less than -0.25.
In the case of FGHIALVLIP, the growth estimate was less than -0.25.
For EYPL, the growth estimate was less than -0.25.
With NFNVTNRVLPRASVWVITRT the growth estimate was less than -0.25.
In the case of PSRVKGAPRLSDMKLRSGVV, the growth estimate was less than -0.25.
GKPS gave a growth estimate of less than -0.25.
In the case of NAVPACTPDINLGHPARGRT, the growth estimate was less than -0.25.
STSRFVDVVASNAIIRALGR showed a growth estimate of less than -0.25.
Substance GWATF has a growth estimate of less than -0.25.
RKRACQTVCREPGGVRCAQR gave a growth estimate of less than -0.25.
Work on RGMTLGVLTRYYDVR yielded a growth estimate of less than -0.25.
GSSLCRNGA gave a growth estimate of less than -0.25.
INHGQLIYMCFLGLFTQTSA gave a growth estimate of less than -0.25.
With NGTVIPRD the growth estimate was less than -0.25.
HTPFGGRCRGVSNRRVLEYQ showed a growth estimate of less than -0.25.
IHCGD showed a growth estimate of less than -0.25.
QRNVAFRSD gave a growth estimate of less than -0.25.
With TTCSSPVSVAIMATLHRVQG the growth estimate was less than -0.25.
In the case of VSRSYGPGRCP, the growth estimate was less than -0.25.
For SAPG, the growth estimate was less than -0.25.
DNGNKSVMLVS gave a growth estimate of less than -0.25.
With MIDRHRCLGKGR the growth estimate was less than -0.25.
HTAAAVRATTSTAQGQVF gave a growth estimate of less than -0.25.
In the case of RNH, the growth estimate was less than -0.25.
QIEPALGLPVACKKSDES was tested, and the growth estimate was less than -0.25.
Work on ATPRCTSVVIQTHAYPVHHF yielded a growth estimate of less than -0.25.
